Results on two molecules are retold here after paper PMC5722932.

Amino acid sequences for entries named in this document (tags omitted). Residues count along the entry.
UniProt P07237, residues 18-508: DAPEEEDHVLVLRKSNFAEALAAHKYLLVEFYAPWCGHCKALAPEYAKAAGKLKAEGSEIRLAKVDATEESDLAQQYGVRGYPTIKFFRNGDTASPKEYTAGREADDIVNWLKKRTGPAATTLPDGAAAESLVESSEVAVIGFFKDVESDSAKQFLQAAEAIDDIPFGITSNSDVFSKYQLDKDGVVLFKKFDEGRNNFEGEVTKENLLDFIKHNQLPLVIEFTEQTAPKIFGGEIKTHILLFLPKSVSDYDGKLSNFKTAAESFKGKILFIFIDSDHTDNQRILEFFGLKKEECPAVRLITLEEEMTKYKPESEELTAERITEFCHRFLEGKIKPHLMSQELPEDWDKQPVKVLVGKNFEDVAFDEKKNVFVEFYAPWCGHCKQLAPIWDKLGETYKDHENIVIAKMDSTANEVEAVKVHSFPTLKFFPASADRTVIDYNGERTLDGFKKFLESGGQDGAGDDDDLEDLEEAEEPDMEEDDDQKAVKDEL

For assay [1], the target named is T1, Rho guanine dissociation inhibitor-α (human (endogenous in HUVEC)) (UniProt P52565).
T1 sequence: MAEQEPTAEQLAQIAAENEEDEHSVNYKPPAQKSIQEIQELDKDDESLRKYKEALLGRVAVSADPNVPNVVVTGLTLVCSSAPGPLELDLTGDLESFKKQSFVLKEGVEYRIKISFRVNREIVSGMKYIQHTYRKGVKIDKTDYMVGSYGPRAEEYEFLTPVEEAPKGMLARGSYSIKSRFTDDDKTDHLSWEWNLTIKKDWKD
Description: proximity ligation; Duolink PLA in HUVEC fixed with 4% PFA and permeabilized with 0.2% NP40; primary antibodies against PDIA1 and RhoGDIα; confocal microscopy.

Assay [2] addresses T1, Rho guanine dissociation inhibitor-α (human (endogenous in HUVEC)). Description: co-IP; HUVEC lysate (50 mM Tris-HCl pH 7.4, 150 mM NaCl, 1 mM EDTA, 1% Triton X-100, 10 mM MgCl2, 1 μM MG132) incubated overnight at 4 °C with RhoGDIα antibody, then Protein A-coated magnetic beads 4 h at 4 °C; PDIA1 detected by western blot (RL90). (In general: In western blotting, separated proteins are transferred to a membrane and probed.)

Assay [3] concerns the target T2, Human RhoGDIα–GST fusion protein (human) (UniProt P52565).
T2 sequence: T1 sequence
Description: pull-down; 200 μg RhoGDIα-GST (oxidized with 20 mM H2O2 or reduced with 20 mM DTT) or GST alone on glutathione sepharose beads, incubated with HUVEC homogenates overnight at 4 °C; washed in lysis buffer; western blot for PDI (RL90) and GST under reduced conditions; only the target purified.

The target in assay [4] is T3, Human RhoGDIα–GST fusion protein (human), P52565.
T3 chain: T1 sequence
In words: dimer band on the western blot of the pull-down; RhoGDIα-GST on glutathione sepharose beads, oxidized (20 mM H2O2) or reduced (20 mM DTT), after incubation with HUVEC lysate; anti-GST blot; dimeric form mainly with the oxidized protein; both purified. The settings on record: remark: other sources report otherwise.

These are yes or no findings as the source states them, for the method shown. For some of these results: In cells and extracts the contact can be indirect. Some results given as binding are weak or reduced against the parent protein; the word gives no strength. For some of these results: Tags and fused reporters may be left off the sequences shown.

In the case of “Protein disulfide isomerase PDIA1 (from UniProt P07237 18-508)”, the binding entry in assay [1], in assay [2] and in assay [3] was “binds” in each case.

B1: Human RhoGDIα–GST fusion protein, P52565 1-204 (protein)
chain: T1 sequence
As to B1, the binding entry in assay [4] is listed as “binds”.
